From paper PMC12747965

Biological target: Flag-tagged p62 (Sequestosome 1, SQSTM1) (UniProt Q13501)
Assay: affinity purification with mass spectrometry; HEK293T cells expressing Flag-tagged p62 or empty vector for 48 h; lysates incubated with anti-Flag affinity gels; co-immunoprecipitates digested with trypsin and analysed by mass spectrometry; three samples per group

With “TRIM25, endogenous (from UniProt Q14258 1-630)” the binding was “binds”.

No constants are given. Whether binding was seen depends on the method and setting. In cells and extracts the contact can be indirect. These calls come from enrichment with a bait or labelling near it, and not all partners need be listed.
